Results on two sequences are retold here after PMC6843132.

The subject of data set [1] is AtNF-YA6 + AtNF-YB2 + AtNF-YC3. Kind of data set: EMSA. To be noted: reduced affinity vs CAB2; 12 mM Tris-HCl pH 8.0, 50 mM NaCl, 50 mM KCl, 5 mM MgCl2, 0.5 mM EDTA, 12% glycerol, 0.2 mg/mL BSA, 2.5 mM DTT, 100 ng poly(dA:dT), 20 nM Cy5 probe, 30 C 30 min; recombinant protein; protein details: 6His,6His removed by thrombin; label: Cy5 5'. Background: In EMSA bound probe runs differently from free probe, usually more slowly.

In data set [2] the test system is AtNF-YA6 + AtNF-YB2 + AtNF-YC3. Kind of data set: competition EMSA. To be noted: competes, less than WT CAB2; 12 mM Tris-HCl pH 8.0, 50 mM NaCl, 50 mM KCl, 5 mM MgCl2, 0.5 mM EDTA, 12% glycerol, 0.2 mg/mL BSA, 2.5 mM DTT, 100 ng poly(dA:dT), 20 nM Cy5 probe, 30 C 30 min; recombinant protein; protein details: 6His,6His removed by thrombin.

A weaker result is weaker than the reference pair of the same experiment.

“GCACTCATCCAATCCTTTATGGAATCTTCTT (double strand) [FT -5.3 kb CCAAT 31 bp probe]”: the binding result in data set [1] is “binds more weakly”.

In the case of “GCACTCATCCAATCCTTTATGGAATCTTCTT (double strand) [FT CCAAT competitor 31 bp]”, the binding result in data set [2] is listed as “binds more weakly”.
